Measured values: publication PMC13295548

Target: T1, FLAG-tagged miP-FERMT3 fusion protein (human)
T1 sequence: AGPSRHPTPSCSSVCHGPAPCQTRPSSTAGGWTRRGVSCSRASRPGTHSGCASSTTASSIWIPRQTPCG
Experiment: affinity purification with mass spectrometry; FLAG-miP-FERMT3 precipitated with anti-FLAG affinity gel from endothelial cell lysates (500 µg, overnight; 50 mmol/L Tris/HCl pH 7.5, 150 mmol/L NaCl, 1% NP-40) three days after adenoviral transduction; LC-MS/MS (DIA); compared to EGFP control

- binding: binds
B1: 26S proteasome non-ATPase regulatory subunit 9 (protein, UniProt O00233 1-223)
chain: MSDEEARQSGGSSQAGVVTVSDVQELMRRKEEIEAQIKANYDVLESQKGIGMNEPLVDCEGYPRSDVDLYQVRTARHNIICLQNDHKAVMKQVEEALHQLHARDKEKQARDMAEAHKEAMSRKLGQSESQGPPRAFAKVNSISPGSPASIAGLQVDDEIVEFGSVNTQNFQSLHNIGSVVQHSEGKPLNVTVIRRGEKHQLRLVPTRWAGKGLLGCNIIPLQR

- binding: binds
B2: tripartite motif containing 8 (protein, UniProt Q9BZR9 1-551)
chain: MAENWKNCFEEELICPICLHVFVEPVQLPCKHNFCRGCIGEAWAKDSGLVRCPECNQAYNQKPGLEKNLKLTNIVEKFNALHVEKPPAALHCVFCRRGPPLPAQKVCLRCEAPCCQSHVQTHLQQPSTARGHLLVEADDVRAWSCPQHNAYRLYHCEAEQVAVCQYCCYYSGAHQGHSVCDVEIRRNEIRKMLMKQQDRLEEREQDIEDQLYKLESDKRLVEEKVNQLKEEVRLQYEKLHQLLDEDLRQTVEVLDKAQAKFCSENAAQALHLGERMQEAKKLLGSLQLLFDKTEDVSFMKNTKSVKILMDRTQTCTSSSLSPTKIGHLNSKLFLNEVAKKEKQLRKMLEGPFSTPVPFLQSVPLYPCGVSSSGAEKRKHSTAFPEASFLETSSGPVGGQYGAAGTASGEGQSGQPLGPCSSTQHLVALPGGAQPVHSSPVFPPSQYPNGSAAQQPMLPQYGGRKILVCSVDNCYCSSVANHGGHQPYPRSGHFPWTVPSQEYSHPLPPTPSVPQSLPSLAVRDWLDASQQPGHQDFYRVYGQPSTKHYVTS

These are yes or no findings as the source states them, for the method shown. Binding seen in cells or lysates may run through a third protein. These calls come from enrichment with a bait or labelling near it, and not all partners need be listed. Where a sequence is shown, tags or fusion partners need not be part of it. Each block holds one binder with its values, some of them ahead of it.
